Data as given in patent US8754112B2, “Sulfone derivative” (Daiichi Sankyo Company, Limited, priority 2009, dated 2014).
Some entries share one result that the patent states for a list of compounds.

Tested on: C57/BL6J mice
Experiment: Mouse oGTT (Oral Glucose Tolerance Test)
Type: in vivo
Settings: C57/BL6J mice (male), fasted; oral administration of 1 mg/ml liquid 30 min before oral glucose load (30% glucose, 10 ml/kg); plasma glucose at pre, 15, 30, 60, 120 min

Row | SMILES | decrease rate (%) of the blood sugar level AUC with respect to a vehicle-administered group [%]
1 | CCC(Oc1ccc(-c2noc(C(C)C)n2)nc1)c1nc(-c2ccc(S(C)(=O)=O)c(F)c2)no1 (stereo not shown) [Example 5, 5-(1-{3-[3-Fluoro-4-(methylsulfonyl)phenyl]-1,2,4-oxadiazol-5-yl}propoxy)-2-(5-isopropyl-1,2,4-oxadiazol-3-yl)pyridine] | ≥ 15
2 | CCc1nc(-c2ccc(OC(CC)c3nc(-c4ccc(S(C)(=O)=O)c(F)c4)no3)cc2)no1 (stereo not shown) [Example 4, 5-Ethyl-3-[4-(1-{3-[3-fluoro-4-(methylsulfonyl)phenyl]-1,2,4-oxadiazol-5-yl}propoxy)phenyl]-1,2,4-oxadiazole] | ≥ 15
3 | CCC(Oc1ccc(-c2noc(C)n2)cc1)c1nc(-c2ccc(S(C)(=O)=O)c(F)c2)no1 (stereo not shown) [Example 18] | ≥ 15
4 | CCc1nc(-c2ccc(O[C@H](CC)c3nc(-c4ccc(S(C)(=O)=O)c(F)c4)no3)cc2)no1 [Example 23, 5-Ethyl-3-(4-{[(1R)-1-{3-[3-fluoro-4-(methylsulfonyl)phenyl]-1,2,4-oxadiazol-5-yl}propyl]oxy}phenyl)-1,2,4-oxadiazole] | ≥ 15
5 | CCCC(Oc1ccc(-c2noc(C(C)C)n2)cc1)c1nc(-c2ccc(S(C)(=O)=O)c(F)c2)no1 (stereo not shown) [Example 3, 3-[3-Fluoro-4-(methylsulfonyl)phenyl]-5-{1-[4-(5-isopropyl-1,2,4-oxadiazol-3-yl)phenoxy]butyl}-1,2,4-oxadiazole] | ≥ 15
6 | CCC(Oc1ccc(-c2noc(C(C)C)n2)cc1)c1nc(-c2ccc(S(C)(=O)=O)c(F)c2)co1 (stereo not shown) [Example 6, 3-[4-(1-{4-[3-Fluoro-4-(methylsulfonyl)phenyl]-1,3-oxazol-2-yl}propoxy)phenyl]-5-isopropyl-1,2,4-oxadiazole] | ≥ 15
7 | CCC(Oc1ccc(-c2noc(C(C)C)n2)cc1)c1nc(-c2ccc(S(C)(=O)=O)c(F)c2)no1 (stereo not shown) [Example 1] | ≥ 15
